Data: PubChem BioAssay AID1461 (National Center for Advancing Translational Sciences (NCATS), 2008)
In all, about 220,000 compounds went through this assay and about 2,300 (1%) were called active. All entries are inconclusive by the source's own rule. Clear calls are listed elsewhere. Calls come from the whole dose curve; as a rule, active = well fitted inhibition curve with a large enough effect; inconclusive = small, poorly fitted or top-dose-only effect, or effect the other way; inactive = no such curve, though single readings can be large or run the other way.

Amino acid sequences for entries named in this document (tags omitted).
UniProt Q6W5P4, whole entry: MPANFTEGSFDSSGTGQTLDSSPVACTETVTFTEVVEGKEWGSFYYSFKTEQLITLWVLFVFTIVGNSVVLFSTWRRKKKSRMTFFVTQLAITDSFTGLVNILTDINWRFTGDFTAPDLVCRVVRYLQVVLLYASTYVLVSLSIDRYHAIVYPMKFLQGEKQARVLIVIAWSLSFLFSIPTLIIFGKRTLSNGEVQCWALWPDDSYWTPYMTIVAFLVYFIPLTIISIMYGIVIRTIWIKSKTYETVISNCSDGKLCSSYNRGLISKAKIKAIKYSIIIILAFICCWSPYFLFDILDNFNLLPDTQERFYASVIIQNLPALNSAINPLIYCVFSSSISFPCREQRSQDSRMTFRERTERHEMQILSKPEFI

Each compound was assayed against Neuropeptide S receptor (Homo sapiens) (UniProt Q6W5P4) (assay: qHTS Assay for Antagonists of the Neuropeptide S Receptor: cAMP Signal Transduction). Conditions: CHO-NPSR cells, cAMP TR-FRET, antagonist mode.
Note: nearly all actives have a fitted effect of over 50% in size.
Potency is the fitted concentration of half-maximal effect.

SMILES | Potency
CP(=O)(Nc1ccc2c(c1)OCCO2)Oc1ccccc1 (configuration not stated) | inconclusive: 12.6 µM
CP(=O)(Nc1ccc(SC(F)(F)F)cc1)Oc1ccc(Cl)cc1 (configuration not stated) | inconclusive: 25.1 µM
